Here are results for 33 targets from the supplement of paper PMC10849652.

The chains behind the UniProt entries cited, without tags or fusion partners. Where a name states a change or a piece, a line headed by the entry shows the natural chain unless it says otherwise.
UniProt Q5T447: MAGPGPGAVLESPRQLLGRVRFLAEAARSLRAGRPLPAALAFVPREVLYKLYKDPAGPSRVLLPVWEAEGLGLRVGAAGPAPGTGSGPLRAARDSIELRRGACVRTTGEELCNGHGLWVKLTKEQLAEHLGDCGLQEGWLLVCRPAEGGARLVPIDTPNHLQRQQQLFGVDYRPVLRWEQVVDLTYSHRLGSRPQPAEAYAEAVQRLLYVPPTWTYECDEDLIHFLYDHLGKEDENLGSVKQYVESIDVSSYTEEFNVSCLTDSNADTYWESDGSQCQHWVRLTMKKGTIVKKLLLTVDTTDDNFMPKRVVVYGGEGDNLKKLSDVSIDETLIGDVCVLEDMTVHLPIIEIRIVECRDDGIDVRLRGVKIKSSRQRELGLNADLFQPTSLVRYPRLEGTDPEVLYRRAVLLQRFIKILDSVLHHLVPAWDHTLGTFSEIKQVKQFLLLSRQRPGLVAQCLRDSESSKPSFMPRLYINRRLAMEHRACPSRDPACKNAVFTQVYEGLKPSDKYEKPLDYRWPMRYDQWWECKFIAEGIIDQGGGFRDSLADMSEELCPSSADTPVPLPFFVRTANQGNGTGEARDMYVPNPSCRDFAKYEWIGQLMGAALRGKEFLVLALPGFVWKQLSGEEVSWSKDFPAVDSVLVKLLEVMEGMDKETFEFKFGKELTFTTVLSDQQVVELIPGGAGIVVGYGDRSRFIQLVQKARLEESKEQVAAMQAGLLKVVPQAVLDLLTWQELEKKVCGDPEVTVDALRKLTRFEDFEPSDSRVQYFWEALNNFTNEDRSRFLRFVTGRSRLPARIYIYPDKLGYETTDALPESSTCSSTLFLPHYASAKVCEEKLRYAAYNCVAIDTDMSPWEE
UniProt Q53GQ0: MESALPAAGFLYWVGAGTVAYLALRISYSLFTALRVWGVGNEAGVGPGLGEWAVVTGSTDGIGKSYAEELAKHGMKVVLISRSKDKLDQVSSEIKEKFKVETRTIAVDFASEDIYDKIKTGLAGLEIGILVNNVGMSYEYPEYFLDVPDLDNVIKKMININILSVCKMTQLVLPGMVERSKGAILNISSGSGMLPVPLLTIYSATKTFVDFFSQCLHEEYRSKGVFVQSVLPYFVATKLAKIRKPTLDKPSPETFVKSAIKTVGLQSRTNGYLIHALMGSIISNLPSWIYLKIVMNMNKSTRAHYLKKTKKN
UniProt P50747: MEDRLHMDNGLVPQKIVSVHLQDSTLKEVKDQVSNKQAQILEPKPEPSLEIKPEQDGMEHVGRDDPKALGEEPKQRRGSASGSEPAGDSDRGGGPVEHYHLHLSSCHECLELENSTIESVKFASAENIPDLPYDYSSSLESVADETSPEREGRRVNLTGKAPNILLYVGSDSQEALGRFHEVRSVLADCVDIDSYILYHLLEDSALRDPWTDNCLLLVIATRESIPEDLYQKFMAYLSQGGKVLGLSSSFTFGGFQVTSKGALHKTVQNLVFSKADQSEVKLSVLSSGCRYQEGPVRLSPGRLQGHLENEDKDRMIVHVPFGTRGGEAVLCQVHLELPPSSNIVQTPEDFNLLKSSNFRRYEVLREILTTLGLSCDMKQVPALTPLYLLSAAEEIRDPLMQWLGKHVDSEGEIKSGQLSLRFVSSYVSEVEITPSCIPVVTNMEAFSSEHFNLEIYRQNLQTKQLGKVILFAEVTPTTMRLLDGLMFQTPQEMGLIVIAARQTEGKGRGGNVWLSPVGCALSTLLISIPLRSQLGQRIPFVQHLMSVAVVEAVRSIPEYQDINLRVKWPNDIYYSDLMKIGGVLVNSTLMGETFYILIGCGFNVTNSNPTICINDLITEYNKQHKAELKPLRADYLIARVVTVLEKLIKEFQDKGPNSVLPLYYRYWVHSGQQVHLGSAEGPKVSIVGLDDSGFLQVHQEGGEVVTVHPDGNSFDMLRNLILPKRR
UniProt Q86YM7: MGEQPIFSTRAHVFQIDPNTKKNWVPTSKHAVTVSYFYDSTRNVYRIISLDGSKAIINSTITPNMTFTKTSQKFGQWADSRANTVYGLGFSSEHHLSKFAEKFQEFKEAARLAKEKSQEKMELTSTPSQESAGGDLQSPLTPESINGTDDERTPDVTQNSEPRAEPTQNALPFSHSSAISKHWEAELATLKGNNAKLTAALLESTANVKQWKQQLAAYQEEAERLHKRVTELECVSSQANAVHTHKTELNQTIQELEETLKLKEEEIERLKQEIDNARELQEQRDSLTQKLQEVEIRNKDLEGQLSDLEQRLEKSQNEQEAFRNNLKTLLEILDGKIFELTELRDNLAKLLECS
UniProt P17482: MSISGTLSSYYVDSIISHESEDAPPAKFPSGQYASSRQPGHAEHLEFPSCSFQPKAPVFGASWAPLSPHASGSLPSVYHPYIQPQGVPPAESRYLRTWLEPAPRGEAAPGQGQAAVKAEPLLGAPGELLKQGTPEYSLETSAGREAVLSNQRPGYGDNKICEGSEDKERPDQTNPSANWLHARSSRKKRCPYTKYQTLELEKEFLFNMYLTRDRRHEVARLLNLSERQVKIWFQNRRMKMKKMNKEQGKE
UniProt Q8NCD3, whole entry, looked up: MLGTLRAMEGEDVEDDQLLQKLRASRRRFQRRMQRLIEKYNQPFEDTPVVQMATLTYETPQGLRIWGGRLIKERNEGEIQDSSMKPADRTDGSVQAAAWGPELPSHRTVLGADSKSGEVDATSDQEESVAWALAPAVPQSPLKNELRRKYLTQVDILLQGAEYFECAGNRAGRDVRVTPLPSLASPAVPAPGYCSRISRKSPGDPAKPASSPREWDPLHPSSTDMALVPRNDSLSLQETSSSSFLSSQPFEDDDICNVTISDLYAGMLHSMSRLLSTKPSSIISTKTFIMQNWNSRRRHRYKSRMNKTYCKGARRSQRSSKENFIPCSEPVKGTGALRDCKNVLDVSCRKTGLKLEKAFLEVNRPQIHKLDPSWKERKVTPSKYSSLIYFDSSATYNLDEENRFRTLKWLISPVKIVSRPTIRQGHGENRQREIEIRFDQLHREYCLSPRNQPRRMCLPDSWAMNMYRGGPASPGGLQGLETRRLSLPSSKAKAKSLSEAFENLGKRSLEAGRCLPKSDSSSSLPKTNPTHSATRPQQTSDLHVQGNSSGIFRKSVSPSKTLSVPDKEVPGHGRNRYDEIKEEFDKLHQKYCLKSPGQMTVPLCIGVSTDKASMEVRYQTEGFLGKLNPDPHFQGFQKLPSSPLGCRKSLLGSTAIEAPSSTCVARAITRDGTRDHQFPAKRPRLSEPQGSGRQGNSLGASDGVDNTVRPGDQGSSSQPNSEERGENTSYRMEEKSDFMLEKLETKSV
UniProt P31943: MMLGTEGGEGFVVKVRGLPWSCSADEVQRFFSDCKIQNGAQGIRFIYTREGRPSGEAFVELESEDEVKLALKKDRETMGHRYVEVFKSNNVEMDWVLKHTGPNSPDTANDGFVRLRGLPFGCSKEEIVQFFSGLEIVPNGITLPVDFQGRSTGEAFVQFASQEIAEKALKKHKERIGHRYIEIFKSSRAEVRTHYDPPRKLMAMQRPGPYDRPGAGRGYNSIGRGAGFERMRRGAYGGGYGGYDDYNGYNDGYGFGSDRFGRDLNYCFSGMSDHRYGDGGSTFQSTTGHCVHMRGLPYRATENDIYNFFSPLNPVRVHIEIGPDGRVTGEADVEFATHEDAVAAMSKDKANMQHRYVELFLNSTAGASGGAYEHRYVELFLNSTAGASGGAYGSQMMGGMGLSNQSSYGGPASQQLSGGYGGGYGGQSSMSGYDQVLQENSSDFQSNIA
UniProt Q9UPZ3: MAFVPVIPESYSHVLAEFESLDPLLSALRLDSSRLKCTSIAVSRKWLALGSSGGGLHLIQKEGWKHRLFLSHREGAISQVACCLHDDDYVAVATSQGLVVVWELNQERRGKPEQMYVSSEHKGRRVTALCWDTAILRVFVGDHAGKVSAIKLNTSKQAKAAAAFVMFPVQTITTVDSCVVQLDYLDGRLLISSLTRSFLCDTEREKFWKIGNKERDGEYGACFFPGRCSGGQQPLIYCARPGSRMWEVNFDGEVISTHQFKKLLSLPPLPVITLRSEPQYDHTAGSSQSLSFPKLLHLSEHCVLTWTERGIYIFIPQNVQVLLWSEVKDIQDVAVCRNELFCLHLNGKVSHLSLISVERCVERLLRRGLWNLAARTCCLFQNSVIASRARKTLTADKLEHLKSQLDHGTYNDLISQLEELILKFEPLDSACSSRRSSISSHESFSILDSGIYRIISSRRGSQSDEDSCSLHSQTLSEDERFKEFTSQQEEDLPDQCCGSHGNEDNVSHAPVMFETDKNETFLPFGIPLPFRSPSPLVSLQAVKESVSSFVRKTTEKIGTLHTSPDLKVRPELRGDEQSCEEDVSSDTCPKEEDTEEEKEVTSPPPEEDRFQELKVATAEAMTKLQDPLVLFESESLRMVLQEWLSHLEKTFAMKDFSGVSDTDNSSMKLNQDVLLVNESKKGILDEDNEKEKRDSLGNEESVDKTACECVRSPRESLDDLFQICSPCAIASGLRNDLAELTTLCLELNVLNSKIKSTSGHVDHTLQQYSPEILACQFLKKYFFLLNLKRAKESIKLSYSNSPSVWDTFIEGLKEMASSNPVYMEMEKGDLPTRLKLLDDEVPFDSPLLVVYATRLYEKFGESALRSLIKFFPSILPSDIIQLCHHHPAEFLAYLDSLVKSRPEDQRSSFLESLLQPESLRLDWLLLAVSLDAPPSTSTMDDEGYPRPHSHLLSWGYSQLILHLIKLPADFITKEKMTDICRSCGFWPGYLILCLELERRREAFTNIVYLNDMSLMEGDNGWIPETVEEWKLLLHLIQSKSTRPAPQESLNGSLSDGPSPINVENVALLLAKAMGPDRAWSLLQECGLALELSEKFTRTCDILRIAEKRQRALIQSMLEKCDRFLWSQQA
UniProt O14979: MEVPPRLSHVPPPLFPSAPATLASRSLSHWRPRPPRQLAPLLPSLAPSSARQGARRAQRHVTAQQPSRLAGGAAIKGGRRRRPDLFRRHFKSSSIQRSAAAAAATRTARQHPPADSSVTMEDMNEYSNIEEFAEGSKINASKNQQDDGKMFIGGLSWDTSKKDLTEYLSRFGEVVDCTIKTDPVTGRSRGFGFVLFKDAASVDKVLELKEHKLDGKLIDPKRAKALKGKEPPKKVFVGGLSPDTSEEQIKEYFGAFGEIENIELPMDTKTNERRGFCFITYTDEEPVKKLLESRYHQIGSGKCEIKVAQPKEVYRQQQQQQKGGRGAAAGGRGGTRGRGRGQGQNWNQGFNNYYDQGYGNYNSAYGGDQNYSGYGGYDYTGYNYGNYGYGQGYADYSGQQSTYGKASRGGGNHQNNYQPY
UniProt Q9NRV9: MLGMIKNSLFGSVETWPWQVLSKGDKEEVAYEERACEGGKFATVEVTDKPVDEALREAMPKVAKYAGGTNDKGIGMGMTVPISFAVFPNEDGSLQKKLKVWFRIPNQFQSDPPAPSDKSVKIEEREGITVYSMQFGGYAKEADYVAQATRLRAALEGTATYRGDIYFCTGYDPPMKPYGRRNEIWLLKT
UniProt P30519: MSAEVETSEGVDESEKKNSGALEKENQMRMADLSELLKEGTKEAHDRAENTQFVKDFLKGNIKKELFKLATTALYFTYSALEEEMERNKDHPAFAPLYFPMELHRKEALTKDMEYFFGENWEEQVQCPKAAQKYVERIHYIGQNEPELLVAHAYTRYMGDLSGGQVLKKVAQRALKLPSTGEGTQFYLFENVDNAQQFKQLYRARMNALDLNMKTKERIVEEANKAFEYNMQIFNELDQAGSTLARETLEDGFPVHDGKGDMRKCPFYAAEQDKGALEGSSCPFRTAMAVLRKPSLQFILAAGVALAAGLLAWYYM
UniProt Q9BXL5: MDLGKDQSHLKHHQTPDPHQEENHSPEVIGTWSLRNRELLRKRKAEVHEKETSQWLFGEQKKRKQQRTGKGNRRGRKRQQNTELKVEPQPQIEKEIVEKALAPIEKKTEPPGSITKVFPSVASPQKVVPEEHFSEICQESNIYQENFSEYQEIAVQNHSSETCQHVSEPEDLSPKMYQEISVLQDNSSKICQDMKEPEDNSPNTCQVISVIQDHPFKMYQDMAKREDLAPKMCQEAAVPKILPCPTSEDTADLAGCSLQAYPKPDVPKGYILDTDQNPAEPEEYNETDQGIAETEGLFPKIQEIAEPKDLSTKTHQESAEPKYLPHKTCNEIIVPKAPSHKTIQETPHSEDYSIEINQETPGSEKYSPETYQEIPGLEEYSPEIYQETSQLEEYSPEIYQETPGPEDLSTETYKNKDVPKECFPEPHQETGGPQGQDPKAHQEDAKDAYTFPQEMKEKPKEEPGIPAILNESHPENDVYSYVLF
UniProt P49773: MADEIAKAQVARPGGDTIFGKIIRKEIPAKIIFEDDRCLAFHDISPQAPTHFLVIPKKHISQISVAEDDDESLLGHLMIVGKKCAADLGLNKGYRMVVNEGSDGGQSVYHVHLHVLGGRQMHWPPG
UniProt P26583: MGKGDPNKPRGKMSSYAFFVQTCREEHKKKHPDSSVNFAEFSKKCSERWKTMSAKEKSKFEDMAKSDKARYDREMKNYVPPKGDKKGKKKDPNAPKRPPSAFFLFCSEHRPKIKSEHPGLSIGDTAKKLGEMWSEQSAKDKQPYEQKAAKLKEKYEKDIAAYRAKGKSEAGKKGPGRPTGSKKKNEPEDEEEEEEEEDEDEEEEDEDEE

The list shows a part of the results.

Compound in the first assay: CCCS(=O)(=O)Nc1ccc(F)c(C(=O)c2c[nH]c3ncc(-c4ccc(Cl)cc4)cc23)c1F [vemurafenib]
The experiment in a line: log2 fold change, soluble protein after heating vs DMSO (PISA); higher = thermal stabilisation; K562 lysate, 10 uM; active = over 0.2 and 3.5 SD of the protein, either way, in both replicates (recomputed). In a few lines: (§1)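 Values give the log-two fold change in thermal stability against solvent controls, from duplicates. Crude K562 extract at 1 mg/mL protein, made by dounce homogenisation in PBS pH 7.4 with 1 mM MgCl2, was treated with 10 μM compound for 30 min. After 3 min heating across 48°C-58°C, aliquots were pooled, adjusted to 0.5% NP-40 at 4°C and centrifuged at 21,000xg for 90 min. The supernatant was measured by TMTpro 16plex LC-MS/MS with channel sums equalised.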
As to HECTD3 (UniProt Q5T447), the log2 fold change was inactive: -0.046.

With HNRNPM (UniProt M0QZM1), the log2 fold change was inactive: -0.027.

With HM13 isoform 2 (UniProt Q8TCT9), the log2 fold change is inactive: -0.033.

With HSD17B12 (UniProt Q53GQ0), the log2 fold change was inactive: 0.073.

For the target HLCS (UniProt P50747), the log2 fold change was inactive: -0.002.

Turning to HEATR6 (UniProt Q6AI08), the log2 fold change is inactive: 0.052.

Take HOMER1 (UniProt Q86YM7): the log2 fold change was inactive: -0.019.

As for HOXB9 (UniProt P17482), the log2 fold change is inactive: -0.015.

Regarding HJURP (UniProt Q8NCD3), the log2 fold change is inactive: -0.06.

In the case of HSBP1 (UniProt O75506), the log2 fold change is inactive: -0.056.

Consider HPF1 (UniProt Q9NWY4), for which the log2 fold change is inactive: 0.031.

For HNRNPH1 (UniProt P31943), the log2 fold change is inactive: 0.009.

Turning to HPS5 (UniProt Q9UPZ3), the log2 fold change was inactive: 0.036.

As for HEXA (UniProt P06865), the log2 fold change was inactive: -0.015.

Turning to HMGXB4 (UniProt Q9UGU5), the log2 fold change is inactive: -0.13.

Take HNRNPA2B1 (UniProt P22626): the log2 fold change is inactive: 0.006.

On to HNRNPDL (UniProt O14979), for which the log2 fold change was inactive: -0.039.

Turning to HSF2 (UniProt Q03933), the log2 fold change is inactive: 0.

HEBP1 (UniProt Q9NRV9): the log2 fold change was inactive: 0.017.

With HIST2H2BF isoform 2 (UniProt Q5QNW6), the log2 fold change is inactive: 0.009.

Take HK1 isoform 2 (UniProt P19367): the log2 fold change was inactive: 0.009.

Consider HMOX2 (UniProt P30519), for which the log2 fold change was inactive: -0.059.

In the case of HERPUD1 (UniProt Q15011), the log2 fold change is inactive: -0.053.

Take HEMGN (UniProt Q9BXL5): the log2 fold change is inactive: -0.012.

With HIST2H2BC (UniProt Q6DN03), the log2 fold change was inactive: -0.261.

HNRNPA0 (UniProt Q13151): the log2 fold change is inactive: 0.015.

For HINT1 (UniProt P49773), the log2 fold change was inactive: 0.005.

For HPS4 isoform 4 (UniProt Q9NQG7), the log2 fold change is inactive: 0.02.

For HMCN1 (UniProt Q96RW7), the log2 fold change is inactive: -0.033.

Take HMGB2 (UniProt P26583): the log2 fold change is inactive: 0.003.

Regarding HNRNPA1 (UniProt P09651), the log2 fold change is inactive: 0.015.

In the case of HIRA (UniProt P54198), the log2 fold change is inactive: 0.001.

Turning to HSPA14 (UniProt Q0VDF9), the log2 fold change is inactive: 0.023.

Compound in another assay: CCCS(=O)(=O)Nc1ccc(F)c(C(=O)c2c[nH]c3ncc(Cl)cc23)c1F
The description is as above. In a few lines: as §1
In the case of HECTD3 (UniProt Q5T447), the log2 fold change is inactive: 0.007.

As to HM13 isoform 2 (UniProt Q8TCT9), the log2 fold change is inactive: -0.02.

HSD17B12 (UniProt Q53GQ0): the log2 fold change is inactive: 0.005.

For the target HLCS (UniProt P50747), the log2 fold change was inactive: 0.034.

HEATR6 (UniProt Q6AI08): the log2 fold change is inactive: 0.031.

On to HOMER1 (UniProt Q86YM7), for which the log2 fold change was inactive: 0.021.

As for HOXB9 (UniProt P17482), the log2 fold change was inactive: 0.

For HJURP (UniProt Q8NCD3), the log2 fold change is inactive: -0.064.

As for HPF1 (UniProt Q9NWY4), the log2 fold change is inactive: -0.033.

For HNRNPH1 (UniProt P31943), the log2 fold change was inactive: 0.034.

For the target HPS5 (UniProt Q9UPZ3), the log2 fold change is inactive: -0.035.

For the target HEXA (UniProt P06865), the log2 fold change is inactive: 0.001.

Consider HNRNPA2B1 (UniProt P22626), for which the log2 fold change was inactive: 0.024.

For HNRNPDL (UniProt O14979), the log2 fold change was inactive: 0.026.

For HEBP1 (UniProt Q9NRV9), the log2 fold change is inactive: 0.002.

With HIST2H2BF isoform 2 (UniProt Q5QNW6), the log2 fold change was inactive: 0.064.

As for HK1 isoform 2 (UniProt P19367), the log2 fold change was inactive: 0.003.

As for HMOX2 (UniProt P30519), the log2 fold change was inactive: -0.015.

For HEMGN (UniProt Q9BXL5), the log2 fold change is inactive: 0.011.

As to HIST2H2BC (UniProt Q6DN03), the log2 fold change is inactive: 0.026.

Consider HNRNPA0 (UniProt Q13151), for which the log2 fold change was inactive: 0.045.

As to HINT1 (UniProt P49773), the log2 fold change is inactive: 0.001.

For HPS4 isoform 4 (UniProt Q9NQG7), the log2 fold change was inactive: 0.083.

Take HMGB2 (UniProt P26583): the log2 fold change was inactive: 0.017.

As to HNRNPA1 (UniProt P09651), the log2 fold change was inactive: 0.011.

As for HIRA (UniProt P54198), the log2 fold change was inactive: 0.017.

For the target HSPA14 (UniProt Q0VDF9), the log2 fold change was inactive: 0.011.

Compound in the next assay: CCN(CCCOc1ccc2c(Nc3cc(CC(=O)Nc4cccc(F)c4)[nH]n3)ncnc2c1)CCOP(=O)(O)O [barasertib]
Described as above. A digest of the protocol: as §1
Turning to HECTD3 (UniProt Q5T447), the log2 fold change is inactive: -0.039.

Consider HNRNPM (UniProt M0QZM1), for which the log2 fold change was inactive: 0.229.

In the case of HM13 isoform 2 (UniProt Q8TCT9), the log2 fold change was inactive: 0.01.

For HSD17B12 (UniProt Q53GQ0), the log2 fold change is inactive: 0.047.

As to HLCS (UniProt P50747), the log2 fold change is inactive: -0.001.

As for HEATR6 (UniProt Q6AI08), the log2 fold change was inactive: 0.109.

On to HOMER1 (UniProt Q86YM7), for which the log2 fold change was inactive: 0.016.

Consider HOXB9 (UniProt P17482), for which the log2 fold change was inactive: 0.033.

Regarding HJURP (UniProt Q8NCD3), the log2 fold change is inactive: 0.064.

HSBP1 (UniProt O75506): the log2 fold change was inactive: 0.095.

As for HPF1 (UniProt Q9NWY4), the log2 fold change was inactive: 0.019.

HNRNPH1 (UniProt P31943): the log2 fold change was inactive: -0.008.

With HPS5 (UniProt Q9UPZ3), the log2 fold change is inactive: -0.013.

Take HEXA (UniProt P06865): the log2 fold change was inactive: 0.008.

With HNRNPA2B1 (UniProt P22626), the log2 fold change was inactive: -0.036.

In the case of HNRNPDL (UniProt O14979), the log2 fold change was inactive: -0.03.

Take HEBP1 (UniProt Q9NRV9): the log2 fold change is inactive: -0.053.

Take HIST2H2BF isoform 2 (UniProt Q5QNW6): the log2 fold change was inactive: -0.028.

As to HK1 isoform 2 (UniProt P19367), the log2 fold change was inactive: 0.012.

Take HMOX2 (UniProt P30519): the log2 fold change was inactive: 0.025.

As to HERPUD1 (UniProt Q15011), the log2 fold change is inactive: 0.071.

For HEMGN (UniProt Q9BXL5), the log2 fold change was inactive: -0.029.

Take HIST2H2BC (UniProt Q6DN03): the log2 fold change is inactive: -0.029.

For HNRNPA0 (UniProt Q13151), the log2 fold change is inactive: -0.057.

Consider HINT1 (UniProt P49773), for which the log2 fold change was inactive: 0.1.

In the case of HPS4 isoform 4 (UniProt Q9NQG7), the log2 fold change was inactive: -0.044.

Take HMCN1 (UniProt Q96RW7): the log2 fold change was inactive: 0.008.

As to HMGB2 (UniProt P26583), the log2 fold change is inactive: -0.019.

Turning to HNRNPA1 (UniProt P09651), the log2 fold change is inactive: 0.023.

As for HSPA14 (UniProt Q0VDF9), the log2 fold change was inactive: 0.001.
